Literature values, collected in patent US8466203B2, “Method of stabilizing human eye tissue by reaction with nitrite and related agents such as nitro compounds” (priority 2006, dated 2013).

System: corneal endothelial cell
Conditions: 3 hrs exposure, rabbit organ culture, electron microscopy, Green 1977; cited from earlier work

CCCCCCCCCCCCCCCC[n+]1ccccc1 [Cetylpyridinium chloride]
Toxic concentration: 10 µM
